Measured values from the supplement of paper PMC6445147.
Single values of this data set are uncertain.

B1: human tRNA-Pro; a variant is named by its letters at N, in order (parent)
chain: GGCTCGTTGGTCTAGNGGTATGATTCTCGCTTAGGGTGCGAGAGGTCCCGGGTTCNNATCCCGGACGAGCCC

Key:
[1] = variants of: B1; assay: tRNA Pol-III promoter activity, log2 (circRNA frequency / plasmid DNA frequency) (log2 ratio); higher = stronger promoter activity; conditions: HEK293T; construct: no Pol-II promoter ((-)CMV library)
[2] = variants of: B1; assay: tRNA 3' processing efficiency (processed reads / all reads, maximum-likelihood estimate) (fraction); higher = more efficient 3' processing; conditions: HEK293T; construct: no Pol-II promoter ((-)CMV library)
[3] = variants of: B1; assay: tRNA 5' processing efficiency (processed reads / all reads, maximum-likelihood estimate) (fraction); higher = more efficient 5' processing; conditions: HEK293T; construct: CMV Pol-II promoter ((+)CMV library, decapped)

Variant	tRNA Pol-III promoter activity (log2) [1]	tRNA 3' processing efficiency [2]	tRNA 5' processing efficiency [3]
GAA A20C T53A	1.28	0.25	
GAA A14C G18A T19C	4.69	0.23	
GAG T19G A20G	3.4	0.22	
GGT T53A A58G	8.51	0.01	
GAA C55T A58T	-0.243	0.29	
GAA G18T T53A T59A	4.12	0.62	
GTC T59C	3.57	0.14	
GAA G9A T59G	1.23	0.23	
GAA G18A A58G T59G	7.19	0.18	
GAA G15A G18A C55A A58C	4.12	0.5	
GAG G18A	1.69	0.54	0.33
GAT G9A G17T C55G A58C	4.13	0.5	
TAC T53G	3.36	0.67	
GAA A58C T59A	1.04	0.31	
GCA G9A T19A	3.77	0.2	
GAA G9A T59A	1.72	0.25	
GCA T53G	1.29	0.64	
AAT G15A A58T	4.67	0.4	
GTG A58G	5.16	0.43	
GTT A58G	3.28	0.46	

Variant	tRNA Pol-III promoter activity (log2) [1]	tRNA 3' processing efficiency [2]	tRNA 5' processing efficiency [3]
GCC A58T T59G	5.93	0.25	
GTA T8C A58T	4.57	0.25	
GTA G18A T19A A58G	4.93	0.17	
GAA G15A G17C T53A T59A	5.62	0.67	
GAA T8C G18A T53A	5.94	0.25	
GAA T8G G15A G18C	4.43	0.57	
GTA G9A A58C	2.77	0.21	
GAA G9C T19A A20T	3.05	0.57	
CAA C55G	1.64	0.27	
GAA T8C G15C T53A	3.71	0.25	
GAT A14T G17T	2.72	0.69	
GAA A14T T19A A58C	3.3	0.17	
GTC T8G	3.72	0.5	
GGG A14T	3.16	0.43	
GAA G17T T53A	0.742	0.37	
GAA G17C T19A	-0.0318	0.25	
GTA T8G T19G A58G	4.94	0.25	
GAA A14G T19A A58T T59A	5.94	0.25	
GGG T19A T53A T59C	9.92	0.01	
GCA A14G	1.7	0.29	

Pulled one by one from the entries so far:
Variant	tRNA Pol-III promoter activity (log2) [1]	tRNA 3' processing efficiency [2]	tRNA 5' processing efficiency [3]
GTA T8G T19G A58G	4.94	0.25	
GAA T8C G15C T53A	3.71	0.25	
GCC A58T T59G	5.93	0.25	
GGG T19A T53A T59C	9.92	0.01	

Further records follow:

Variant	tRNA Pol-III promoter activity (log2) [1]	tRNA 3' processing efficiency [2]	tRNA 5' processing efficiency [3]
GAT A20T T59C	2.9	0.25	
GAA T8G A58G T59C	4.15	0.29	
GAA A20T T54A	2.77	0.29	
GCA T19A A20G	4.36	0.4	
GAA A14T T53C T59A	5.49	0.73	
GGA T54G C55T	2.12	0.25	
TAT G9A	3.89	0.5	
CAA A14T T53A	5.31	0.14	
GAA G17A C55T A58G	3.36	0.25	
GAA T19G C55G	-0.323	0.25	0.2
ACA T19A A58T	4.52	0.14	
GCA A14C A58C	4.19	0.18	
GAA A14C T19C A58T	4.45	0.25	
CAA T19G A58C	5.58	0.5	
GAT A14G G17C	5.03	0.24	
GGG	2.8	0.62	
GAG A20G T59G	3.34	0.25	
GAC G15T G17C	3.3	0.27	
